Assay results reported in the supplement of paper PMC12067093, “Discovery and optimisation of a covalent ligand for TRIM25 and its application to targeted protein ubiquitination” (Chemical Science, 2025).
The other results are listed elsewhere or left out.

Chains of the proteins cited; added tags and fusions are not shown. Lines headed by an entry give the natural chain unless they say otherwise; changes in a name come on top.
UniProt O75494: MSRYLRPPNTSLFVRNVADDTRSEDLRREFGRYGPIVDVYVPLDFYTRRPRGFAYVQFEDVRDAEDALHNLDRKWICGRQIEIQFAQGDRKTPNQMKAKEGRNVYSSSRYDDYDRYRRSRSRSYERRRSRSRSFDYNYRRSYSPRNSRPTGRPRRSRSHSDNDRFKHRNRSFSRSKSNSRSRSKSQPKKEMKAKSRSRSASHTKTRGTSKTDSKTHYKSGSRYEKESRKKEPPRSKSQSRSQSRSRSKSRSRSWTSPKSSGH
UniProt Q9NRL3: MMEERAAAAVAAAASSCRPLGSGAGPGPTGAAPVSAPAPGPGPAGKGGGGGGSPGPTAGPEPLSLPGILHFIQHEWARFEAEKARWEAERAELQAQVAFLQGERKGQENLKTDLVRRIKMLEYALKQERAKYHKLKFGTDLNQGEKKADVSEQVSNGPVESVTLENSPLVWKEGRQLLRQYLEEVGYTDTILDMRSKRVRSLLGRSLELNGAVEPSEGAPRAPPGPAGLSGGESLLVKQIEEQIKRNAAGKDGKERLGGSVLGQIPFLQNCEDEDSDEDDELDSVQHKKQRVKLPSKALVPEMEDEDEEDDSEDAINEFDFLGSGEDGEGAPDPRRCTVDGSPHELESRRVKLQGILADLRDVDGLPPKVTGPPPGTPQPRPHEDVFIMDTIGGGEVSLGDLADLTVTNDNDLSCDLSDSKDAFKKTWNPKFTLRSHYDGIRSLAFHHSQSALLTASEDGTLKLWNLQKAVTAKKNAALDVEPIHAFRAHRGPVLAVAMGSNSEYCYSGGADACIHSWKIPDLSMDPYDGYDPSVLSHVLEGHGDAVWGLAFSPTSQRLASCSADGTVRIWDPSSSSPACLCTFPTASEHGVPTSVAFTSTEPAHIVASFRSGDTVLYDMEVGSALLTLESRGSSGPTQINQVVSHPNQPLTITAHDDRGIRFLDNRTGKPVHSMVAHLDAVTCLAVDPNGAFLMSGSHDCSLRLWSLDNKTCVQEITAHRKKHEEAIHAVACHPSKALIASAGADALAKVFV
UniProt Q9P2R7: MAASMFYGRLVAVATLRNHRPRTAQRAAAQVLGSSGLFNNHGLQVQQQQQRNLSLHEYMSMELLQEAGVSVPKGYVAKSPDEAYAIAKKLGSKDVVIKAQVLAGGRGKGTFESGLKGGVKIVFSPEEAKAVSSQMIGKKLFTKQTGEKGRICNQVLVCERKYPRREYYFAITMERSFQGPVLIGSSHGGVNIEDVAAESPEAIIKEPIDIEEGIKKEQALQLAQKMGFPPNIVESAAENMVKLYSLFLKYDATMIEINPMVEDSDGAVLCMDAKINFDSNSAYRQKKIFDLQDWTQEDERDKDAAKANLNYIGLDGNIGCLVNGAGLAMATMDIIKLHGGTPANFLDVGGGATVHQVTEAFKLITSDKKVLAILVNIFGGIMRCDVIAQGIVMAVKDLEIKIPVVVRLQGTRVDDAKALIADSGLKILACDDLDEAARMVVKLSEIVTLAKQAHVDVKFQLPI
UniProt Q8N3U4: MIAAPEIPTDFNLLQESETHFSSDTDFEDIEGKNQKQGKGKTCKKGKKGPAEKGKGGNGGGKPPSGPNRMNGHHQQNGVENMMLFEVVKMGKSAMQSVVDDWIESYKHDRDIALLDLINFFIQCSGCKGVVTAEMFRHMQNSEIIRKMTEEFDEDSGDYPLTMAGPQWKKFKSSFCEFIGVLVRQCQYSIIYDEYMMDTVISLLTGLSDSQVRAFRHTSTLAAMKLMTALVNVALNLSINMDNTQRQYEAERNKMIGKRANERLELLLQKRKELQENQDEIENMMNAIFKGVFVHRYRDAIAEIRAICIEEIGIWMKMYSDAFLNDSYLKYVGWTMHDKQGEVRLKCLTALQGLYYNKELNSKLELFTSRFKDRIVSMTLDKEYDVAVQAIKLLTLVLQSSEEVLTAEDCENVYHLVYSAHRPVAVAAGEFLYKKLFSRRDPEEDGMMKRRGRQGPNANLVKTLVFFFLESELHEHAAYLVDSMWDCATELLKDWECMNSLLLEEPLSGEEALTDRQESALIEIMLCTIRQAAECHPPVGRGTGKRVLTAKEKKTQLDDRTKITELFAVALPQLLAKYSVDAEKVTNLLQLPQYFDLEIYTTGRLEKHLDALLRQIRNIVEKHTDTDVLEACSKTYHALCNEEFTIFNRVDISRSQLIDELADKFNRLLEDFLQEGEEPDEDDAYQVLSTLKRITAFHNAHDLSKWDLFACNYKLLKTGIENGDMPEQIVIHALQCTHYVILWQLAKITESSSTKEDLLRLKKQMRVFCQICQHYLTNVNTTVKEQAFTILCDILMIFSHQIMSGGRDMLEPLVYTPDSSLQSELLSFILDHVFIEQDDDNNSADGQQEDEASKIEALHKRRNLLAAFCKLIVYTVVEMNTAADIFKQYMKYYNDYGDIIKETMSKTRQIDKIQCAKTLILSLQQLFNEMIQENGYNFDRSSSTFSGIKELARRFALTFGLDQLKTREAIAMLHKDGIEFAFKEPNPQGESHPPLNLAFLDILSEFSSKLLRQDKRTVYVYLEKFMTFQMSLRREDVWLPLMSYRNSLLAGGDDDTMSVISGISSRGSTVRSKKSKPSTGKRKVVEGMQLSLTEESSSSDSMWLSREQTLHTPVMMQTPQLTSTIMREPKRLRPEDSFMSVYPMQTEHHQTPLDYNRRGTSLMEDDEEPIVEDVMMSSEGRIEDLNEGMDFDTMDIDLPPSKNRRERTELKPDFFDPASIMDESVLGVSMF
UniProt Q9UNE7: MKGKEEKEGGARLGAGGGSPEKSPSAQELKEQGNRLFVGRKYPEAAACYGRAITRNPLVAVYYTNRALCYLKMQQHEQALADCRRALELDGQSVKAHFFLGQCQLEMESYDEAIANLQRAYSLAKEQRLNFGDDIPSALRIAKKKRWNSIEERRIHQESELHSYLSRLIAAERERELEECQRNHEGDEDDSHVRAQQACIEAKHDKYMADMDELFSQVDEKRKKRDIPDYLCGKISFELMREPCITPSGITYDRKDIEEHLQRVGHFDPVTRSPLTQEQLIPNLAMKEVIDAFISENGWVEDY
UniProt P61764, whole entry: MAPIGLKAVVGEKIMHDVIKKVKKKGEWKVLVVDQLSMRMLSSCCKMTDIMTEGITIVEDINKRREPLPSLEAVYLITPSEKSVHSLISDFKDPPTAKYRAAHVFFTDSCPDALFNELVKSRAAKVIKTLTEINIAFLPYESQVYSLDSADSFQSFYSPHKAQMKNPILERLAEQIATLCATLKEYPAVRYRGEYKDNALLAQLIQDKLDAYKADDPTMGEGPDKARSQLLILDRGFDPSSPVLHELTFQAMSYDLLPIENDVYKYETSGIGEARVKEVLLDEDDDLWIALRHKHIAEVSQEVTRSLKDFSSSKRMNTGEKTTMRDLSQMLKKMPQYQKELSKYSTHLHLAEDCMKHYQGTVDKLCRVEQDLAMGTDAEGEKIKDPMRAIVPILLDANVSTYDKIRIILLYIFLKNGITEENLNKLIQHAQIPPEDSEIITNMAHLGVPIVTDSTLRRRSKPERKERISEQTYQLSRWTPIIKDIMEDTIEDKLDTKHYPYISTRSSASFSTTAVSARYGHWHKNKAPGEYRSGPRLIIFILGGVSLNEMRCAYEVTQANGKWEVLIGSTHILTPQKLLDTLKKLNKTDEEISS
UniProt O95425, whole entry, looked up: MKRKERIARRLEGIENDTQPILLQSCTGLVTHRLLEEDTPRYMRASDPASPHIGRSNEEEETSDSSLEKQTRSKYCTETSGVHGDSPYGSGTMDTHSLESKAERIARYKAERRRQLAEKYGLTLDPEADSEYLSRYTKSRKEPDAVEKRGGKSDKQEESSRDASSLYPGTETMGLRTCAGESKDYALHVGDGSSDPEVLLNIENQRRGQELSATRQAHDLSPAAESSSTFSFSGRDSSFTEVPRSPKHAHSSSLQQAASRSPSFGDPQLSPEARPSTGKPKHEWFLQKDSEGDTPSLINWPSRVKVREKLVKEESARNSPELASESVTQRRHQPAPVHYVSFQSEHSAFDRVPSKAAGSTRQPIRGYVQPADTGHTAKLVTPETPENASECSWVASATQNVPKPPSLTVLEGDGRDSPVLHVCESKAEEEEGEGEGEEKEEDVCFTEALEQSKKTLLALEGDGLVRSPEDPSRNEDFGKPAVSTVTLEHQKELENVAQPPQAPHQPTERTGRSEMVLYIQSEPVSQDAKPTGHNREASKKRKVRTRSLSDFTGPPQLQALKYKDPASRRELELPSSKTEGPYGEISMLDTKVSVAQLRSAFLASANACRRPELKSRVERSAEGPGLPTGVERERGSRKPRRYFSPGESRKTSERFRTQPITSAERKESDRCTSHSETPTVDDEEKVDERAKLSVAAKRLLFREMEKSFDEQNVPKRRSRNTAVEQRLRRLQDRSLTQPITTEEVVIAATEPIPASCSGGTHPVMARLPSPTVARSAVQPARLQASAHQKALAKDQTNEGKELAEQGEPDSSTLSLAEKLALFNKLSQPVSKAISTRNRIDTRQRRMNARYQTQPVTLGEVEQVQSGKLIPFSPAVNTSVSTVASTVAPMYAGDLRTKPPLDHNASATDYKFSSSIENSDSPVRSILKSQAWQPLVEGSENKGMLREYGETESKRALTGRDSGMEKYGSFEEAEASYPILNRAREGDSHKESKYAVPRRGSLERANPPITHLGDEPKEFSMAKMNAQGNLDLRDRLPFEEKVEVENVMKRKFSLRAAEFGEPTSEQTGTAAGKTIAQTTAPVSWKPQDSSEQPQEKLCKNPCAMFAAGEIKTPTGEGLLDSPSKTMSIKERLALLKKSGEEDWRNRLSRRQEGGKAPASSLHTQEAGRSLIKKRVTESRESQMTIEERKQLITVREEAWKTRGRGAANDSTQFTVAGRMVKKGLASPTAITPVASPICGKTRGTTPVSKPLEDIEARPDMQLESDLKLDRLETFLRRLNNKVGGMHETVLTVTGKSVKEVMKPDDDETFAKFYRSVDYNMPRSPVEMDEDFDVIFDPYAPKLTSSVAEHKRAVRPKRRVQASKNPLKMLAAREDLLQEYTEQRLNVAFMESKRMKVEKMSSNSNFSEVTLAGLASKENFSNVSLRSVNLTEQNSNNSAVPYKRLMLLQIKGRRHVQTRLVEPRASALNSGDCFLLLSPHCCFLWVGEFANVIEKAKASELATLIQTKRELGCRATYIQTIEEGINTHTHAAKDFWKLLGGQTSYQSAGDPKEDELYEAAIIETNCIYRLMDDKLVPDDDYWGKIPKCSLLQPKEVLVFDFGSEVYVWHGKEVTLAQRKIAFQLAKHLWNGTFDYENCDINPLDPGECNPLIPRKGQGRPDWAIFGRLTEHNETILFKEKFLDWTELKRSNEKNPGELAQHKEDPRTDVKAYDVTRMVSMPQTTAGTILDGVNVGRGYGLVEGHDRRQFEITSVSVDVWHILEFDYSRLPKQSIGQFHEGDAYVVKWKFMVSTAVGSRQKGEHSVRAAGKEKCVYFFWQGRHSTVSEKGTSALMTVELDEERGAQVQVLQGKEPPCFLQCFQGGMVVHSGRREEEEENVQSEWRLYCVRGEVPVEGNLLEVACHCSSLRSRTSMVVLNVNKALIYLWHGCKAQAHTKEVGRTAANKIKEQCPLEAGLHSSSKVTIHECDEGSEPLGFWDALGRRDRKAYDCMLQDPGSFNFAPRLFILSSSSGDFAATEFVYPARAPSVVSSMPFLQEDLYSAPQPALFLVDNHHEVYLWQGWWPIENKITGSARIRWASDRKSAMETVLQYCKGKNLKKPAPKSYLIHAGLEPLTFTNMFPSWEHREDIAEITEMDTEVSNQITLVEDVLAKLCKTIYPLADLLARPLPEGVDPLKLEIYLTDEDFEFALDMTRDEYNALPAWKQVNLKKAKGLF
UniProt P78362, whole entry, looked up: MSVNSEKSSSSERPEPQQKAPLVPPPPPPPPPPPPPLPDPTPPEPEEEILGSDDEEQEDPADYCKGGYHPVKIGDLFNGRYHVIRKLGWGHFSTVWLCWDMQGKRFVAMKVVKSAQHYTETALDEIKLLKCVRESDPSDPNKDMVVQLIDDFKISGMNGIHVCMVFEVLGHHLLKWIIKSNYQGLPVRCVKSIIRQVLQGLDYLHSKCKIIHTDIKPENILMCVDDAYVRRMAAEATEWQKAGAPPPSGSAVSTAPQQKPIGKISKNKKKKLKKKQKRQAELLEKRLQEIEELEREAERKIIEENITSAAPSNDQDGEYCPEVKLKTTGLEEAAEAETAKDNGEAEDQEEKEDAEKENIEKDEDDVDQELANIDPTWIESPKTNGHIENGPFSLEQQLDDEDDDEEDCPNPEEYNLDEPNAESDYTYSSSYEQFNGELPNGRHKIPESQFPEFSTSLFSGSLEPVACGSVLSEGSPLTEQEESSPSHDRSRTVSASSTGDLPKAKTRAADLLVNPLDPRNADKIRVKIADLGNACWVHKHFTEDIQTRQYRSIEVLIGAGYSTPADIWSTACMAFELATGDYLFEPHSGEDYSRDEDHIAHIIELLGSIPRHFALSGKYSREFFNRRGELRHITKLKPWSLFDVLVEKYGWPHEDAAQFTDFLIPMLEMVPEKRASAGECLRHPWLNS

Compound: CC1Cc2ccccc2N1C(=O)C1CCCN(C1)C(=O)CCl (mixture of isomers) [TRIM25 ligand 11 (diastereomer mixture)]
Assay: probe-labelled cysteine peptide fold change vs DMSO (competition) (log2 fold change); higher = less target engagement (more negative = stronger competition)
Conditions: THP-1, incubation time: 4 h
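Also: competitive chemoproteomic profiling in live THP-1 cells with an iodoacetamide desthiobiotin (IA-DTB) probe, comparing probe-labelled peptide intensities in compound-treated cells against DMSO-treated controls.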

Row | Target | probe-labelled cysteine peptide fold change (10 µM) | probe-labelled cysteine peptide fold change (50 µM)
1 | STXBP3_O00186_114_AAYIYFTDFCPDNLFNK (UniProt O00186) | 0.0302 | 0.141
2 | SRSF10_O75494-5_149_KPNCSWNTQYSSAYYTSR (UniProt O75494) | 0.191 | 0.0171
3 | STRN_O43815_740_TCIQEFTAHR (UniProt O43815) | 0.104 | 0.246
4 | STRAP_Q9Y3F4_305_CVLPEEDSGELAKPK (UniProt Q9Y3F4) | -0.0387 | 0.0212
5 | SRSF7_Q16629_73_VICGSR (UniProt Q16629) | -0.452 | -0.251
6 | SSU72_Q9NP77_192_TFLHTVCFY (UniProt Q9NP77) | -0.159 | 0.226
7 | STRN4_Q9NRL3_733_KHEEAIHAVACHPSK (UniProt Q9NRL3) | 0.0308 | 0.0102
8 | STXBP5_Q5T5C0_933_VISLPTQNCAYK (UniProt Q5T5C0) | 0.21 | 0.269
9 | STIP1_P31948_26_ALSVGNIDDALQCYSEAIK (UniProt P31948) | -0.0575 | -0.0376
10 | SRSF9_Q13242_80_NGYDYGQCR (UniProt Q13242) | -0.212 | -0.0686
11 | SUMF1_Q8NBK3_365_CAADRLPTMD (UniProt Q8NBK3) | -0.196 | -0.122
12 | SUCLA2_Q9P2R7_384_CDVIAQGIVMAVK (UniProt Q9P2R7) | 0.0376 | 0.147
13 | STAT3_P40763_108_CLWEESR (UniProt P40763) | -0.0688 | 0.128
14 | SUZ12_Q15022_201_DVSCPIR (UniProt Q15022) | 0.0532 | 0.0287
15 | STBD1_O95210_108_EVCDNSR (UniProt O95210) | -0.164 | -0.159
16 | SUPT5H_O00267_429_EHNFQPGDNVEVCEGELINLQGK (UniProt O00267) | -0.0998 | -0.175
17 | STIM2_Q9P246_426_ALSELTTCLR (UniProt Q9P246) | -0.0606 | 0.143
18 | STAG2_Q8N3U4_711_WDLFACNYK (UniProt Q8N3U4) | 0.0901 | 0.11
19 | SSSCA1_O60232_125_EHQLASASELPLGSRPAPQPPVPRPEHCEGAAAGLK (UniProt O60232) | -0.117 | -0.301
20 | SRPRA_P08240_253_VWELGGCANK (UniProt P08240) | 0.0867 | -0.197

Row | Target | probe-labelled cysteine peptide fold change (10 µM) | probe-labelled cysteine peptide fold change (50 µM)
21 | SUPT6H_Q7KZ85_1132_AELSCR (UniProt Q7KZ85) | 0.043 | 0.0464
22 | SUGP2_Q8IX01_476_TLSNPLDLALALETTNSLCR (UniProt Q8IX01) | 0.251 | 0.285
23 | STUB1_Q9UNE7_232_DIPDYLCGK (UniProt Q9UNE7) | 0.149 | -0.0445
24 | SRRM2_Q9UQ35_956_SVSPCSNVESR (UniProt Q9UQ35) | -0.0202 | 0.258
25 | STXBP1_P61764_110_AAHVFFTDSCPDALFNELVK (UniProt P61764) | 0.349 | 0.135
26 | SVIL_O95425_671_CTSHSETPTVDDEEK (UniProt O95425) | 0.197 | 0.0849
27 | SRSF10_O75494-3_167_SHSDNDRPNCSWNTQYSSAYYTSR (UniProt O75494) | -0.29 | -0.219
28 | STAG1_Q8WVM7_531_QESALIELMVCTIR (UniProt Q8WVM7) | 0.213 | 0.137
29 | SRPK2_P78362_320_IIEENITSAAPSNDQDGEYCPEVK (UniProt P78362) | 0.18 | -0.374
30 | SUN1_O94901_403_QPLQGDSEAFPWHWMSGVEQQVASLSGQCHHHGENLR (UniProt O94901) | -0.168 | 0.0175
31 | STK11IP_Q8N1F8_710_TESPAVCPNCGSDHVVLLAVSR (UniProt Q8N1F8) | 0.0375 | 0.276
32 | SRRT_Q9BXP5_490_LRECELSPGVNR (UniProt Q9BXP5) | -0.0498 | 0.266
33 | STAT6_P42226_272_TLVTSCFLVEK (UniProt P42226) | -0.00153 | 0.102
34 | STUB1_Q9UNE7_244_EPCITPSGITYDRK (UniProt Q9UNE7) | -0.101 | -0.121
35 | SSH3_Q8TE77_413_AQGTHVLVHCK (UniProt Q8TE77) | 0.0573 | 0.0575
36 | STXBP2_Q15833_365_LCSVEQDLAMGSDAEGEK (UniProt Q15833) | 0.0583 | -0.14
37 | STK32C_Q86UX6_379_LHCDPTFELEEMILESRPLHK (UniProt Q86UX6) | 0.0194 | -0.102
38 | SUCLA2_Q9P2R7_430_ILACDDLDEAAR (UniProt Q9P2R7) | 0.12 | 0.0195
39 | STAMBP_O95630_390_LTDHGLEEISSCR (UniProt O95630) | 0.19 | -0.0455

Complete entries as entered above:
SVIL_O95425_671_CTSHSETPTVDDEEK (UniProt O95425) reads probe-labelled cysteine peptide fold change (10 µM): 0.197; probe-labelled cysteine peptide fold change (50 µM): 0.0849
SRSF10_O75494-3_167_SHSDNDRPNCSWNTQYSSAYYTSR (UniProt O75494) reads probe-labelled cysteine peptide fold change (10 µM): -0.29; probe-labelled cysteine peptide fold change (50 µM): -0.219
SUPT6H_Q7KZ85_1132_AELSCR (UniProt Q7KZ85) reads probe-labelled cysteine peptide fold change (10 µM): 0.043; probe-labelled cysteine peptide fold change (50 µM): 0.0464
